Out of some 53,000 sequences screened, about 3,700 (7%) were called active.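 The calls were made as follows: active = gene knockdowns whose robust z-score for IL-1 alpha signal is at least 2 or at most -2, so actives lie on both sides; inactive = the rest.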 The list shows a part of the results.
Experiment: Components of the Cytosolic LPS Sensing Pathway: Gene Identification via Genome-wide siRNA Screen;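 also: robust z of the log signal after scaling to non-targeting control siRNA wells of the plate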
Settings: RAW264.7 macrophages, IL-1a HTRF, actives lie on both sides, screened at 100 nM (by protocol), cells primed 5 h with Pam3CSK4 first
How it was run: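 Cells (RAW264.7, 1×10^4 per well) were transfected with siRNA at 100 nM and cultured 48h at 37 degrees C. Pam3CSK4 was added for 5 hours; LipidA transfection followed for 24 hour. IL-1a was then measured by HTRF.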

z-score, inactive:
GGUGAAAAGCAAUCCUCAGTT against Prss27 -1.71, GAACUGGUCCUACAAUGAATT against Tmem150a 0.399, GCCGGUUUCAGUUAAAGAGTT against Pccb 0.837, CGAGCUCAGGUGAGAAAUUTT against Pfpl 0.924, GAAAAUGGUAAUCUAGGCATT against Siah1b -0.992, GGUAAUGCCACAUUGAUGGTT against Upk2 -0.698, GGAUAUGAAGCCUUCAUGGTT against Slc5a1 -0.645, CGCCUAGUUAAGGAAGACATT against Mcam -0.76, GGGAGAAAUCCAGAGGAGATT against Clec7a 0.032, GCAGUUAUGCCAGCUAUACTT against Hao2 -0.341, GGGAUAUCAGUAUUUCUCATT against Vipas39 -0.0383, GGUGAACGGUGAGAAUGUGTT against Slc9a3r1 -1.43, GGAGUUCUACAAUCAAACATT against Slc2a1 1.22, CCGGUACCUUGCUAUGAAGTT against Fgf2 0.89, GGGUCUAAAUGACUUCUCATT against Mapk1ip1 -1.59, GGAGUAUGGGACCAGAAUATT against Tarbp2 1.87, GCAAUUUGUAUGACGGUCUTT against Olfr1240 1.33, GCAGGGAUUUCUCGAAUGATT against Pgm2 1.18, GGAGUUUGCCAGUGAAUUUTT against Ptpn22 -0.603, GCAGAGCUUACCACAGACUTT against Inppl1 -0.632, GCGUGAACGGAUAAAAAAUTT against Figla 1.09, GGAUGUCUGUCUCAAUUCUTT against Olfr1012 1.28, CGCAUUUUCUCUCGAGCUUTT against Slc25a30 -0.34, GUUUACCUAGUCUUUGAAUTT against Qrich1 -0.373, GGACAAAGCUAUUGGGAUUTT against Olfr402 1.45, GGAAUUUUCUGGAAAUCCATT against Tctn2 -0.111, GGAUGAUCUCUACAGUAUATT against Cckar 0.233, GGACAAAAACAAGAUCCUCTT against Hspa2 1.56, GGGACCACGUCACUCUUAATT against Rab6b 1.78, CGUAUUGUUCUCAAGCUAUTT against Rtp4 0.0893, GGGUGAGUCCUAAAAAAAATT against Ntmt1 0.918, CGUAGACUGAUAUAGCAAUTT against Irf5 0.033, GCAGACUCAUGCACUUGAATT against Olfr1165-ps -0.321, GCUAGGUUGGAUAUAUAUGTT against Mypn -0.0247, GCGUGAGUCCCAGAAGCUUTT against 2410018L13Rik -1.21, GCCUUUGAGGUUAUGAUCATT against Klk7 -1.09, CCUACAUUGAUCAUCUUUATT against Olfr901 -1.12, GCACCUGGUAAGGUCAUUCTT against Olfr545 -1.18, GGAACACCGAACAUAAAUATT against Slc9c1 0.583, GGAACUGAUGGAGAAGCUATT against Tpcn2 -0.604, CGGAAAGUCCGGUUUCGAATT against Grxcr1 0.156, GGGAACCUACGAGGAUUAUTT against Myl6 0.397, CCUUGUGGACUCUUUAAUUTT against Id2 1.1, GGAUCAACAUGGUCUCCUCTT against Stambpl1 -1.63, GGUAGUCUGAACACUCUAATT against Msto1 0.427, GGCCGACCCGUUUUCUUUUTT against Nap1l4 0.594, CGUGACUCGUUGUUUCUGGTT against Fyn -1.62, CGGAAAAUUUGUUCCUGACTT against Rbm12b2 1.44, GGGCUAAGCACCUGAGAUCTT against Ugt2b38 1.33, GGACAUGAUCGACGACUACTT against Zfyve28 0.109, GCUCUUCUCGCAUUCCUAUTT against Gpc2 -0.595, GCUAUUUGCUCAAAGCUGUTT against Sptbn2 0.0521

z-score, active:
GGAUCUGAAGCUGAUUACATT against Clca2 2.47, GCACAGGACUGAUGCUAAGTT against Wdr91 2.92

— PubChem BioAssay AID1508600 (Functional Genomics Laboratory (NCATS/FGL), 2020)
